Measured values reported in patent publication US7250505.
No constants are given. Whether binding was seen depends on the method and setting. For some assays here: In cells and extracts the contact can be indirect. Some results given as binding are weak or reduced against the parent protein; the word gives no strength.

By UniProt entry, the sequences of proteins in these tests, tags left out. Where a name states a change or a piece, a line headed by the entry shows the natural chain unless it says otherwise. Residues count along the entry.
UniProt P12023, residues 18-770: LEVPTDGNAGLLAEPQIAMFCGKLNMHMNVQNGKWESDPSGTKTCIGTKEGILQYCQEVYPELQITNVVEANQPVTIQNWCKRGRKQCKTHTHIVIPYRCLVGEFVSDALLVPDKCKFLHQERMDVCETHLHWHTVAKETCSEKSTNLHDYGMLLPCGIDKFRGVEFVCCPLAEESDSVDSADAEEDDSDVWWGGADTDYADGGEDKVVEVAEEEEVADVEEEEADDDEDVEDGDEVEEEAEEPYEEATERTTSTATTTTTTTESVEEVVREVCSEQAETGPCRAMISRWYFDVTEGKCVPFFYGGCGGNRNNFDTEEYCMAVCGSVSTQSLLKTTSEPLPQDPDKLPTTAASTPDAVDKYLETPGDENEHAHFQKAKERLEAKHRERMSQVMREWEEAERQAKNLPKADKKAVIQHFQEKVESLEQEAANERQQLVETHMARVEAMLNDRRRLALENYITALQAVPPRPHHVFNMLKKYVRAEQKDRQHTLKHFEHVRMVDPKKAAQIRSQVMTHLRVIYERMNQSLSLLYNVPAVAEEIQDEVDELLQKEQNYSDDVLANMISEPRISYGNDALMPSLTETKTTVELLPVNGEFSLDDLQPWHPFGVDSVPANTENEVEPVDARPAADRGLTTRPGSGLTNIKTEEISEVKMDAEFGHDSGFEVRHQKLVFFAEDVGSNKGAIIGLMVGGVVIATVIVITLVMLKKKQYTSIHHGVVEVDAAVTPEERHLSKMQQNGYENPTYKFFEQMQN
UniProt O75553: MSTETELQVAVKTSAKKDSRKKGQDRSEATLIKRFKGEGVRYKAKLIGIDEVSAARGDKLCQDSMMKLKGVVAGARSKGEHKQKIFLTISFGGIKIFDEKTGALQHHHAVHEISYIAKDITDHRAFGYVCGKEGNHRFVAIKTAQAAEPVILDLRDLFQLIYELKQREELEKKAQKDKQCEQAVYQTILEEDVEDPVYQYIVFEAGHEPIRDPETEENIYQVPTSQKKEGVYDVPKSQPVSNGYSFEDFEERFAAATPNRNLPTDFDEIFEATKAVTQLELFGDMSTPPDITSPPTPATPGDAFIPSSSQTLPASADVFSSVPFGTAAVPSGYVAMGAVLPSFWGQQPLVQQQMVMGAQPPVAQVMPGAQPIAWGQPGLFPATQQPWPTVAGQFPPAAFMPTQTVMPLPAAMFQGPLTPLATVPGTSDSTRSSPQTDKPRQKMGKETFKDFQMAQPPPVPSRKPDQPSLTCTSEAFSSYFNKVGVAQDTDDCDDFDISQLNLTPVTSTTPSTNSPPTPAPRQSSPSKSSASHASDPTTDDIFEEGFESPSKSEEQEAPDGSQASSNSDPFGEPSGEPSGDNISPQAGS

How the values were obtained:
[1] = target: APP protein (endogenous, full-length) (UniProt P12023); experiment: GST pull-down from P19 cell extracts, Western blot
[2] = target: T1, p150 Ship peptide with the motif Glu Met Ile Asn Pro Asn Tyr; experiment: cellulose peptide array, radiolabeled GST-PTB
T1 sequence (peptide): EMINPNY

[3] = target: T2, p150 Ship peptide with the motif Met Phe Glu Asn Pro Leu Tyr; experiment: cellulose peptide array, radiolabeled GST-PTB
T2 sequence (peptide): MFENPLY

[4] = target: T3, LRP peptide with the more carboxy-terminal NPXY motif Asn Phe Thr Asn Pro Val Tyr; experiment: cellulose peptide array, radiolabeled GST-PTB
T3 sequence (peptide): NFTNPVY

[5] = target: T4, LDL receptor peptide with the motif Asn Phe Asp Asn Pro Val Tyr; experiment: cellulose peptide array, radiolabeled GST-PTB
T4 sequence (peptide): NFDNPVY

binding [1]: binds
binding [2]: binds
binding [3]: binds
binding [4]: binds
binding [5]: binds
Substance: GST-mDab1 PTB domain fusion protein (from UniProt O75553 29-197)
